Data as given in PubChem BioAssay AID504808 (Drosophila RNAi Screening Center, 2011).
Purpose: 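Chromatin factors that keep E2F targets switched off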 (primary screen). Cell system: Drosophila S2 cells. Reagents: long dsRNA against Drosophila genes. Read-out: 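Dual luciferase plate measurements; E2F-specific signal taken as firefly over Renilla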. Reading the numbers: E2F firefly: higher = more E2F reporter activity; Renilla normaliser: higher = more normaliser reporter signal. Call rule: 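a knock-down counted as active when the firefly/Renilla E2F signal rose above 50%, a threshold chosen arbitrarily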.
The deposit covers about 21,000 reagents; this is an unselected part of those that have a named target and a result. Of all reagents, 18 (0.084%) were called active. 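Raw counts without plate normalisation, one of two replicates; the ratio scores behind the calls were not deposited.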 A number with no mark means an inactive call. Not stated in the record: the amount of reagent, the time to read-out.

{"gene knocked down":"CG34136","amplicon":"DRSC01833","E2F firefly, rep 1":1.17e5,"Renilla normaliser, rep 1":5032}
{"gene knocked down":"Csl4","amplicon":"DRSC02944","E2F firefly, rep 1":1.50e5,"Renilla normaliser, rep 1":5225}
{"gene knocked down":"CG30411","amplicon":"DRSC04004","E2F firefly, rep 1":1.37e5,"Renilla normaliser, rep 1":5589}
{"gene knocked down":"CG4281","amplicon":"DRSC18521","E2F firefly, rep 1":1788,"Renilla normaliser, rep 1":972}
{"gene knocked down":"Gapvd1 (GTPase activating protein and VPS9 domains 1)","amplicon":"DRSC19752","E2F firefly, rep 1":1.09e5,"Renilla normaliser, rep 1":5793}
{"gene knocked down":"Srg3 (Sting-regulated gene 3)","amplicon":"DRSC08984","E2F firefly, rep 1":1.46e5,"Renilla normaliser, rep 1":5076}
{"gene knocked down":"Srg3 (Sting-regulated gene 3)","amplicon":"DRSC10178","E2F firefly, rep 1":59255,"Renilla normaliser, rep 1":2608}
{"gene knocked down":"mth (methuselah)","amplicon":"DRSC08725","E2F firefly, rep 1":78027,"Renilla normaliser, rep 1":3564}
{"gene knocked down":"CR32745 (pseudo)","amplicon":"DRSC17442","E2F firefly, rep 1":71360,"Renilla normaliser, rep 1":2688}
{"gene knocked down":"B-H2 (BarH2)","amplicon":"DRSC19335","E2F firefly, rep 1":86777,"Renilla normaliser, rep 1":4209}
{"gene knocked down":"Ist1","amplicon":"DRSC09697","E2F firefly, rep 1":79189,"Renilla normaliser, rep 1":3614}
{"gene knocked down":"rsh (radish)","amplicon":"DRSC18966","E2F firefly, rep 1":89635,"Renilla normaliser, rep 1":2815}
{"gene knocked down":"rsh (radish)","amplicon":"DRSC19816","E2F firefly, rep 1":61936,"Renilla normaliser, rep 1":3911}
{"gene knocked down":"CG16854","amplicon":"DRSC02536","E2F firefly, rep 1":1.40e5,"Renilla normaliser, rep 1":5263}
{"gene knocked down":"Amt (Ammonium transporter)","amplicon":"DRSC16055","E2F firefly, rep 1":1.12e5,"Renilla normaliser, rep 1":6313}
{"gene knocked down":"CG15196","amplicon":"DRSC19643","E2F firefly, rep 1":1.25e5,"Renilla normaliser, rep 1":6277}
{"gene knocked down":"CG13332","amplicon":"DRSC06367","E2F firefly, rep 1":98142,"Renilla normaliser, rep 1":4268}
{"gene knocked down":"CG13108","amplicon":"DRSC02206","E2F firefly, rep 1":1.33e5,"Renilla normaliser, rep 1":5089}
{"gene knocked down":"alpha-Man-Ib (alpha-Mannosidase class I b)","amplicon":"DRSC14418","E2F firefly, rep 1":1489,"Renilla normaliser, rep 1":948}
{"gene knocked down":"CG18178","amplicon":"DRSC10302","E2F firefly, rep 1":71313,"Renilla normaliser, rep 1":3185}
{"gene knocked down":"RanBP3 (Ran binding protein 3)","amplicon":"DRSC14217","E2F firefly, rep 1":66648,"Renilla normaliser, rep 1":4010}
{"gene knocked down":"Gpa2 (Glycoprotein hormone alpha 2)","amplicon":"DRSC21071","E2F firefly, rep 1":1.43e5,"Renilla normaliser, rep 1":6587}
{"gene knocked down":"sei (seizure)","amplicon":"DRSC04713","E2F firefly, rep 1":79031,"Renilla normaliser, rep 1":3344}
{"gene knocked down":"CG5446","amplicon":"DRSC02862","E2F firefly, rep 1":96665,"Renilla normaliser, rep 1":4527}
{"gene knocked down":"mud (mushroom body defect)","amplicon":"DRSC19019","E2F firefly, rep 1":75990,"Renilla normaliser, rep 1":2838}
{"gene knocked down":"CG6766","amplicon":"DRSC02991","E2F firefly, rep 1":1.02e5,"Renilla normaliser, rep 1":4293}
{"gene knocked down":"CG12081","amplicon":"DRSC17802","E2F firefly, rep 1":7983,"Renilla normaliser, rep 1":848}
{"gene knocked down":"CG6996","amplicon":"DRSC10758","E2F firefly, rep 1":1.20e5,"Renilla normaliser, rep 1":5679}
{"gene knocked down":"pnt (pointed)","amplicon":"DRSC17028","E2F firefly, rep 1":59546,"Renilla normaliser, rep 1":4743}
{"gene knocked down":"CG34056","amplicon":"DRSC08374","E2F firefly, rep 1":1.03e5,"Renilla normaliser, rep 1":3927}
{"gene knocked down":"PH4alphaNE1 (prolyl-4-hydroxylase-alpha NE1)","amplicon":"DRSC16546","E2F firefly, rep 1":1885,"Renilla normaliser, rep 1":784}
{"gene knocked down":"CG7448 (retired record)","amplicon":"DRSC11828","E2F firefly, rep 1":76906,"Renilla normaliser, rep 1":3772}
{"gene knocked down":"chrb (charybde)","amplicon":"DRSC11335","E2F firefly, rep 1":77291,"Renilla normaliser, rep 1":3787}
{"gene knocked down":"Rfk (Riboflavin kinase)","amplicon":"DRSC15454","E2F firefly, rep 1":82826,"Renilla normaliser, rep 1":3603}
{"gene knocked down":"Tsp42El (Tetraspanin 42El)","amplicon":"DRSC06186","E2F firefly, rep 1":92131,"Renilla normaliser, rep 1":3368}
{"gene knocked down":"CG4438","amplicon":"DRSC02746","E2F firefly, rep 1":1.37e5,"Renilla normaliser, rep 1":4927}

Not a retest: 6 of the entries above.
{"gene knocked down":"Amt (Ammonium transporter)","amplicon":"DRSC16055","E2F firefly, rep 1":1.12e5,"Renilla normaliser, rep 1":6313}
{"gene knocked down":"CG15196","amplicon":"DRSC19643","E2F firefly, rep 1":1.25e5,"Renilla normaliser, rep 1":6277}
{"gene knocked down":"CG13332","amplicon":"DRSC06367","E2F firefly, rep 1":98142,"Renilla normaliser, rep 1":4268}
{"gene knocked down":"CG13108","amplicon":"DRSC02206","E2F firefly, rep 1":1.33e5,"Renilla normaliser, rep 1":5089}
{"gene knocked down":"alpha-Man-Ib (alpha-Mannosidase class I b)","amplicon":"DRSC14418","E2F firefly, rep 1":1489,"Renilla normaliser, rep 1":948}
{"gene knocked down":"CG18178","amplicon":"DRSC10302","E2F firefly, rep 1":71313,"Renilla normaliser, rep 1":3185}
